# Inconclusive means that the source gave no clear call. Such entries were picked first, then a sample of the others. Where the call is inconclusive, the potency comes from a doubtful curve fit. Activity calls are given as the source filed them. Calls follow the shape of the dose curve; as a rule, active = well fitted inhibition curve with a large enough effect; inconclusive = small, poorly fitted or top-dose-only effect; inactive = no such curve, though single readings can be large or run the other way.
# Assay: Acumen qHTS Assay for Inhibitors of the mTORC1 Signaling Pathway in MEF (Tsc2-/-, p53-/-) Cells: Hit Validation;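 also: phospho-rpS6 Ser235/236 immunofluorescence normalized to propidium iodide cell count; nearly all actives have a fitted effect of over 65% in size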
# Conditions: Acumen imaging
# Potency is read from the fitted curve at half-maximal effect.
row,Structure (SMILES),Potency
1,COc1cccc(C2CC(=O)Nc3cc4c(cc32)OCCO4)c1OC (stereo not given),"inconclusive: 14.7 µM [inhibitor, single point]"
2,CCN(CC)CCCNc1sc(S(=O)(=O)c2ccccc2)nc1S(=O)(=O)c1ccc(Cl)cc1,"inconclusive: 23.3 µM [inhibitor, single point]"
3,CCS(=O)(=O)c1ncc(Cl)c(C(=O)N(Cc2ccccc2)Cc2ccco2)n1,active: 5.21 µM
4,COc1ccc(CNCCC(c2ccccc2)c2ccc3c(c2)OCO3)cc1 (stereo not given),"inconclusive: 16.5 µM [inhibitor, single point]"
5,CCOC(=O)c1ccc2ncc(C(=O)OCC)c(NCCc3ccc(OC)c(OC)c3)c2c1,"inconclusive: 13.1 µM [inhibitor, single point]"
6,Oc1ccc(NCc2ccc(OCc3ccccc3)cc2)cc1,"inconclusive: 16.5 µM [inhibitor, single point]"
7,Cc1ccc2sc(N(CCCN(C)C)C(=O)c3ccco3)nc2c1C,"inconclusive: 16.5 µM [inhibitor, single point]"
8,COc1ccc(C)cc1NC(=O)CSc1ccc(-c2ccccn2)nn1,"inconclusive: 16.5 µM [inhibitor, single point]"
9,CCCCN(CC)CCCNC(=O)C1CCN(c2nc3ccc(CC)cc3s2)CC1,"inconclusive: 14.7 µM [inhibitor, single point]"
10,Cc1ccc(CNS(=O)(=O)c2cc(C(=O)Nc3cccc(C(F)(F)F)c3)ccc2F)cc1,"inconclusive: 23.3 µM [inhibitor, single point]"
